Measurements reported in PubChem BioAssay AID493246 (Drosophila RNAi Screening Center, 2011).
Purpose: 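Genes fly cells need to grow and stay alive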 (primary screen). System: Drosophila Kc and S2R+ cells. Reagent: long dsRNA against Drosophila genes. Detection: 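Cell number per well after knock-down, printed as raw plate values; calls were based on per-plate z-scores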. Scale: Kc cell number and S2R+ cell number: higher = more cells remaining. Call rule: 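Counted as a hit if cell number falls by a z-score of at least 3 within its plate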.
The screen tested about 21,000 reagents; below is an unselected part of those with a known target gene and a result. Of all reagents, 429 (2%) were called active. 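Values are raw and not normalised between plates; calls rest on per-plate z-scores that were not deposited.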 Not stated in the record: the amount of reagent, the time to read-out.

CG1688 [DRSC05934] | Kc cell number, rep 1: 1.40e6; Kc cell number, rep 2: 1.39e6; S2R+ cell number, rep 1: 9.13e5; S2R+ cell number, rep 2: 1.01e6; outcome: inactive
CG14104 [DRSC10106] | Kc cell number, rep 1: 1.30e6; Kc cell number, rep 2: 1.25e6; S2R+ cell number, rep 1: 1.36e6; S2R+ cell number, rep 2: 1.43e6; outcome: inactive
CG30010 [DRSC05193] | Kc cell number, rep 1: 1.49e6; Kc cell number, rep 2: 1.57e6; S2R+ cell number, rep 1: 9.66e5; S2R+ cell number, rep 2: 1.09e6; outcome: inactive
TwdlT [DRSC16677] | Kc cell number, rep 1: 1.46e6; Kc cell number, rep 2: 1.49e6; S2R+ cell number, rep 1: 1.01e6; S2R+ cell number, rep 2: 1.12e6; outcome: inactive
PIG-A [DRSC06982] | Kc cell number, rep 1: 1.32e6; Kc cell number, rep 2: 1.41e6; S2R+ cell number, rep 1: 1.20e6; S2R+ cell number, rep 2: 1.17e6; outcome: inactive
EMC2B [DRSC15506] | Kc cell number, rep 1: 1.24e6; Kc cell number, rep 2: 1.27e6; S2R+ cell number, rep 1: 1.19e6; S2R+ cell number, rep 2: 1.34e6; outcome: inactive
Spt3 [DRSC15465] | Kc cell number, rep 1: 1.74e6; Kc cell number, rep 2: 1.82e6; S2R+ cell number, rep 1: 1.33e6; S2R+ cell number, rep 2: 1.52e6; outcome: inactive
CG31740 [DRSC01619] | Kc cell number, rep 1: 1.47e6; Kc cell number, rep 2: 1.56e6; S2R+ cell number, rep 1: 9.82e5; S2R+ cell number, rep 2: 1.22e6; outcome: inactive
Cpr50Cb [DRSC06975] | Kc cell number, rep 1: 1.57e6; Kc cell number, rep 2: 1.63e6; S2R+ cell number, rep 1: 1.25e6; S2R+ cell number, rep 2: 1.39e6; outcome: inactive
CG13192 [DRSC06317] | Kc cell number, rep 1: 1.54e6; Kc cell number, rep 2: 1.56e6; S2R+ cell number, rep 1: 1.24e6; S2R+ cell number, rep 2: 1.39e6; outcome: inactive
bib [DRSC03496] | Kc cell number, rep 1: 1.33e6; Kc cell number, rep 2: 1.38e6; S2R+ cell number, rep 1: 1.19e6; S2R+ cell number, rep 2: 1.24e6; outcome: inactive
opm [DRSC20141] | Kc cell number, rep 1: 5.60e5; S2R+ cell number, rep 1: 8.09e5; outcome: inactive
CG44014 [DRSC14995] | Kc cell number, rep 1: 1.49e6; Kc cell number, rep 2: 1.52e6; S2R+ cell number, rep 1: 1.08e6; S2R+ cell number, rep 2: 1.15e6; outcome: inactive
CG33012 [DRSC06287] | Kc cell number, rep 1: 1.63e6; Kc cell number, rep 2: 1.66e6; S2R+ cell number, rep 1: 1.38e6; S2R+ cell number, rep 2: 1.46e6; outcome: inactive
CG33012 [DRSC06288] | Kc cell number, rep 1: 1.67e6; Kc cell number, rep 2: 1.72e6; S2R+ cell number, rep 1: 1.44e6; S2R+ cell number, rep 2: 1.50e6; outcome: inactive
mAcon2 [DRSC15629] | Kc cell number, rep 1: 1.63e6; Kc cell number, rep 2: 1.62e6; S2R+ cell number, rep 1: 1.23e6; S2R+ cell number, rep 2: 1.35e6; outcome: inactive
CG32816 [DRSC17337] | Kc cell number, rep 1: 1.12e6; Kc cell number, rep 2: 1.32e6; S2R+ cell number, rep 1: 1.00e6; S2R+ cell number, rep 2: 1.09e6; outcome: inactive
stil [DRSC07699] | Kc cell number, rep 1: 1.39e6; Kc cell number, rep 2: 1.38e6; S2R+ cell number, rep 1: 1.19e6; S2R+ cell number, rep 2: 1.29e6; outcome: inactive
CG34051 [DRSC01739] | Kc cell number, rep 1: 1.61e6; Kc cell number, rep 2: 1.68e6; S2R+ cell number, rep 1: 1.08e6; S2R+ cell number, rep 2: 1.13e6; outcome: inactive
CG10814 [DRSC06004] | Kc cell number, rep 1: 1.30e6; Kc cell number, rep 2: 1.39e6; S2R+ cell number, rep 1: 1.09e6; S2R+ cell number, rep 2: 1.10e6; outcome: inactive
Arp6 [DRSC19326] | Kc cell number, rep 1: 6.15e5; S2R+ cell number, rep 1: 8.56e5; outcome: inactive

2 consecutive entries from above, quoted:
Spt3 [DRSC15465] | Kc cell number, rep 1: 1.74e6; Kc cell number, rep 2: 1.82e6; S2R+ cell number, rep 1: 1.33e6; S2R+ cell number, rep 2: 1.52e6; outcome: inactive
CG31740 [DRSC01619] | Kc cell number, rep 1: 1.47e6; Kc cell number, rep 2: 1.56e6; S2R+ cell number, rep 1: 9.82e5; S2R+ cell number, rep 2: 1.22e6; outcome: inactive
